Data on two compounds can be found in publication PMC7002685, “Inhibition of vascular calcification by inositol phosphates derivatized with ethylene glycol oligomers” (Nature Communications, 2020).

This data set can be described thus: In vitro ionized human serum calcium. To be noted: replicates. Type of data set: physicochemical. The protocol:
One potential side effect of inositol phosphate-based drugs is toxicity due to chelation of ionized serum calcium. […] At 100 µM (OEG2)2-IP4, 96 ± 2% of control serum-ionized calcium was measured.
To assess reduction in ionized serum calcium, increasing concentrations of test compounds were incubated in human serum (Human AB serum, off-the-clot, HSER-ABPM; LuBioScience GmbH, Zurich, Switzerland) at RT and free ionized calcium levels were measured subsequently by the o-cresolphthalein method using the calcium colorimetric assay.

The structures appear in SMILES notation. Several values for one entry are separate records, joined by “and”; a condition that tells them apart may be missing. Equal values may be shown once.

Regarding `COCCOCCO[C@@H]1[C@@H](OP(=O)(O)O)[C@H](OCCOCCOC)[C@@H](OP(=O)(O)O)[C@@H](OP(=O)(O)O)[C@H]1OP(=O)(O)O` [(OEG2)2-IP4, 4,6-Di-O-(methoxy-diethyleneglycol)-myo-inositol-1,2,3,5-tetrakis(phosphate)], the “ionized human serum calcium (Figure 4l)” value by setting is: (Concentration 100 μM) 95.8158 and 93.7695 and 97.7416; (Concentration 300 μM) 94.5035 and 88.6419 and 88.9281; (Concentration 600 μM) 87.0648 and 84.2142 and 81.1428; (Concentration 1000 μM) 78.3204 and 76.7951 and 74.0862.

In the case of `O=P(O)(O)O[C@H]1[C@H](OP(=O)(O)O)[C@@H](OP(=O)(O)O)[C@H](OP(=O)(O)O)[C@@H](OP(=O)(O)O)[C@H]1OP(=O)(O)O` [IP6, myo-Inositol hexakisphosphate], the “ionized human serum calcium (Figure 4l)” value runs as follows: (Concentration 100 μM) 94.9032 and 92.4158 and 96.0893; (Concentration 300 μM) 86.9409 and 86.4165 and 87.7304; (Concentration 600 μM) 79.0817 and 79.8261 and 78.3216; (Concentration 1000 μM) 63.3946 and 70.0991 and 66.5065.
